These are yes or no findings as the source states them, for the method shown. Some results given as binding are weak or reduced against the parent protein; the word gives no strength.
Target: T1, CRACC ITSM2 phosphopeptide (Biotin-PANTVpYSTVEI) (human)
T1 sequence (peptide, phosphotyrosine (pY, position 6 of the peptide); biotin on the N-terminus): PANTVYSTVEI
Assay: SPR; data not shown; isolated SH2 domains of SAP and EAT-2, affinities compared with the full length proteins; both purified

B1: isolated SH2 domain of SAP (domain or fragment, UniProt O60880 6-104)
chain: VYHGKISRETGEKLLLATGLDGSYLLRDSESVPGVYCLCVLYHGYIYTYRVSQTETGSWSAETAPGVHKRYFRKIKNLISAFQKPDQGIVIPLQYPVEK
binding: binds

B2: isolated SH2 domain of EAT-2 (domain or fragment, UniProt O14796 5-101)
chain: YYHGRLTKQDCETLLLKEGVDGNFLLRDSESIPGVLCLCVSFKNIVYTYRIFREKHGYYRIQTAEGSPKQVFPSLKELISKFEKPNQGMVVHLLKPI
binding: binds

Reference: PMC3958483, “Fine Specificity and Molecular Competition in SLAM Family Receptor Signalling” (PLoS ONE, 2014)
